These are yes or no findings as the source states them, for the method shown. For some of these results: Binding seen in cells or lysates may run through a third protein. Some entries that bind do so weakly or less than the wild type.

Sequences of proteins named here, by UniProt entry; tags and fusion partners are left off. A change or cut given only in a name is not applied to a line headed by its entry. A line that says so, or that is headed by a name, gives the form on record, which may keep a tag or linker. Residues count along the entry.
UniProt Q9UNS1: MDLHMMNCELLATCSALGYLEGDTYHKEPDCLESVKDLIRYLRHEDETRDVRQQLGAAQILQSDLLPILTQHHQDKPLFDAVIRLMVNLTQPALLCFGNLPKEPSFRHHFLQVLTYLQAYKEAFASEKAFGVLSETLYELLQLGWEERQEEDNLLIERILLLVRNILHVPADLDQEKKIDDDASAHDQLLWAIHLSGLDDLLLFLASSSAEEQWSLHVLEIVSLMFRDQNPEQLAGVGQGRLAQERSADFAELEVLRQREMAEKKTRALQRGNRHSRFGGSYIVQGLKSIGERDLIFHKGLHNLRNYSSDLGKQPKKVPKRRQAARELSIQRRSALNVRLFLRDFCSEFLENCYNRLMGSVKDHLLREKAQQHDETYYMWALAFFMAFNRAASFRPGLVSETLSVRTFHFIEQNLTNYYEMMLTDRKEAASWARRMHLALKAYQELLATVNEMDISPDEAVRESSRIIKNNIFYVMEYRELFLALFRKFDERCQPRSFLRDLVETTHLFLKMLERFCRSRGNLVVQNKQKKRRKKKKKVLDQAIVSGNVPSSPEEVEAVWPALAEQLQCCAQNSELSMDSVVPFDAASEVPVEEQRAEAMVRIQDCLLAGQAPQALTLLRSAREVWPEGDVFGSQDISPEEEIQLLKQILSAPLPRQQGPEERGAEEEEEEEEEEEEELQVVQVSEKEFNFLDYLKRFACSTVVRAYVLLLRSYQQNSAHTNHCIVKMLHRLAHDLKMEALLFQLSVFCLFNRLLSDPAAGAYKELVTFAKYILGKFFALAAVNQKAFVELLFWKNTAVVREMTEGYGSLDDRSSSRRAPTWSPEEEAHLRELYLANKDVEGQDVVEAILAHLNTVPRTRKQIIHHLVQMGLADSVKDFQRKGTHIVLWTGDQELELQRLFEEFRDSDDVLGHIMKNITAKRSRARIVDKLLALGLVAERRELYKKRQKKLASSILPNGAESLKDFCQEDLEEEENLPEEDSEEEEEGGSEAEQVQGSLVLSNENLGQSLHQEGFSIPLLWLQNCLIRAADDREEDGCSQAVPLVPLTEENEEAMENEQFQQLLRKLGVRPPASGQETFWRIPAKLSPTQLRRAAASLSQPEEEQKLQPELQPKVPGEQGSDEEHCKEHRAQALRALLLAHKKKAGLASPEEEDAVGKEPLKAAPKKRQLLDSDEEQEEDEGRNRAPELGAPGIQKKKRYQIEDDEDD
Flag-tagged human Timeless truncated at the PARP1-binding domain (PARP*): residues 1-1000 of Q9UNS1
Flag-tagged human Timeless lacking the DNA-binding domain (ΔDBD) (Q9UNS1, form named): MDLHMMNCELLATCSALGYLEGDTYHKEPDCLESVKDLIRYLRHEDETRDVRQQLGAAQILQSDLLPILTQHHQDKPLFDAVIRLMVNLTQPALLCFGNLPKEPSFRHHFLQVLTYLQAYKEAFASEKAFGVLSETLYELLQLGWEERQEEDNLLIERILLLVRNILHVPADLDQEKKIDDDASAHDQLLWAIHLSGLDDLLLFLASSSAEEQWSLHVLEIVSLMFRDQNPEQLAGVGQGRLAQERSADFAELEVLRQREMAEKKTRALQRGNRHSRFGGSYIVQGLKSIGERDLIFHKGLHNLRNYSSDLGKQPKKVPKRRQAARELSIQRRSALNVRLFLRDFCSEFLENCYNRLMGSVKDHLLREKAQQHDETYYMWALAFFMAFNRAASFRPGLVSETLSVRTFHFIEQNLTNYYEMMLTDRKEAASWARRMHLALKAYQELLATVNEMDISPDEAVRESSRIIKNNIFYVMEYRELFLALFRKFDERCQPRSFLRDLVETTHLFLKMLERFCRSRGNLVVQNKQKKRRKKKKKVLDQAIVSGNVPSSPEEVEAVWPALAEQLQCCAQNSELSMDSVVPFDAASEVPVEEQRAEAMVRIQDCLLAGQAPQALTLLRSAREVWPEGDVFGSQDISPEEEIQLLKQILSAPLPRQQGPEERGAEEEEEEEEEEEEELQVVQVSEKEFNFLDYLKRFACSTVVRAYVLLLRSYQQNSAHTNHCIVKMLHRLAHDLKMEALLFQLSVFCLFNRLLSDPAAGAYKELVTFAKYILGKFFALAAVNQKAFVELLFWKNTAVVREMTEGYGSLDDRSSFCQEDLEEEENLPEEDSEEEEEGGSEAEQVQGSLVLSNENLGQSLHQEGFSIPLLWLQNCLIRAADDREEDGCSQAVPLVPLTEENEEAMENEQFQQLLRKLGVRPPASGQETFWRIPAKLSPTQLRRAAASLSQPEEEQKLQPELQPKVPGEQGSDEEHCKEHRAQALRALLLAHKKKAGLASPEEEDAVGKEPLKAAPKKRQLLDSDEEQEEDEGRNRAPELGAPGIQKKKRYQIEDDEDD
human Timeless, optimised construct (1-1208 with residues 239-330 replaced by a (Gly-Ser-Thr)2 linker) (Q9UNS1, form named): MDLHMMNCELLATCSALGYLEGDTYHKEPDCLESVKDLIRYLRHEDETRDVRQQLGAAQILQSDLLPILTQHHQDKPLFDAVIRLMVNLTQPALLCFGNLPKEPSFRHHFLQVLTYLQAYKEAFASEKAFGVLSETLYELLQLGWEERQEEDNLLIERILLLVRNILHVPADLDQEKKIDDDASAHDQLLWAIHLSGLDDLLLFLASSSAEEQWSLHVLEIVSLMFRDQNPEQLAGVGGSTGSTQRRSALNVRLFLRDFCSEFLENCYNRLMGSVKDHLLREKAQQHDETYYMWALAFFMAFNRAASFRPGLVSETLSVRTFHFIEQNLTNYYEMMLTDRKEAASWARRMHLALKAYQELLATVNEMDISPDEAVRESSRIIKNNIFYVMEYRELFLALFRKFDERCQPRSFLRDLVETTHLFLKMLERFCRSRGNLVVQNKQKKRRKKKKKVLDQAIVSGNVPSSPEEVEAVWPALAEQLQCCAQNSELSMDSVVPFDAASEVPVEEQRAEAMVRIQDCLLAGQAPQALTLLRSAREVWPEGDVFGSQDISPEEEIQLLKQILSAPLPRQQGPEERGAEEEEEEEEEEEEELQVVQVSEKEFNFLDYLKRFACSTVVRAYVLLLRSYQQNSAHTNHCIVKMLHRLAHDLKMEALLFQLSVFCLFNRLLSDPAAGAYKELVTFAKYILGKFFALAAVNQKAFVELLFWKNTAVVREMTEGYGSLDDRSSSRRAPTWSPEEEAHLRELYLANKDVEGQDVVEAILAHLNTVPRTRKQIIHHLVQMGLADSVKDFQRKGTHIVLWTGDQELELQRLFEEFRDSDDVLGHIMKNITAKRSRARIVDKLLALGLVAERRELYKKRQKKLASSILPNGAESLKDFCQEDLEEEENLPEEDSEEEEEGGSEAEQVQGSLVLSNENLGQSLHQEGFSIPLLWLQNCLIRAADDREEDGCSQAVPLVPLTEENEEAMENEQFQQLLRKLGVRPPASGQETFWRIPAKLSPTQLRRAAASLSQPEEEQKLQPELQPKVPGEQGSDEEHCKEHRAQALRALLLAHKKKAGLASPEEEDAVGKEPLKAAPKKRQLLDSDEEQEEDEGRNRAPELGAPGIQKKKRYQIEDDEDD

For experiment [1], the target named is Flag-tagged human Timeless lacking the DNA-binding domain (ΔDBD) (human) (UniProt Q9UNS1). Description: co-IP.
Experiment [2] addresses Flag-tagged human Timeless truncated at the PARP1-binding domain (PARP*) (human) (UniProt Q9UNS1). Description: co-IP.
Experiment [3] addresses Flag-tagged human Timeless, wild type (pcDNA4-Flag-hTimeless) (human) (UniProt Q9UNS1). Description: co-IP.
In experiment [4] the target is human Timeless, optimised construct (1-1208 with residues 239-330 replaced by a (Gly-Ser-Thr)2 linker) (human) (UniProt Q9UNS1). Description: co-purification.

B1: human DDX11 helicase (pcDNA3-hDDX11) (enzyme, UniProt Q96FC9 1-970)
chain: MANETQKVGAIHFPFPFTPYSIQEDFMAELYRVLEAGKIGIFESPTGTGKSLSLICGALSWLRDFEQKKREEEARLLETGTGPLHDEKDESLCLSSSCEGAAGTPRPAGEPAWVTQFVQKKEERDLVDRLKAEQARRKQREERLQQLQHRVQLKYAAKRLRQEEEERENLLRLSREMLETGPEAERLEQLESGEEELVLAEYESDEEKKVASRVDEDEDDLEEEHITKIYYCSRTHSQLAQFVHEVKKSPFGKDVRLVSLGSRQNLCVNEDVKSLGSVQLINDRCVDMQRSRHEKKKGAEEEKPKRRRQEKQAACPFYNHEQMGLLRDEALAEVKDMEQLLALGKEARACPYYGSRLAIPAAQLVVLPYQMLLHAATRQAAGIRLQDQVVIIDEAHNLIDTITGMHSVEVSGSQLCQAHSQLLQYVERYGKRLKAKNLMYLKQILYLLEKFVAVLGGNIKQNPNTQSLSQTGTELKTINDFLFQSQIDNINLFKVQRYCEKSMISRKLFGFTERYGAVFSSREQPKLAGFQQFLQSLQPRTTEALAAPADESQASTLRPASPLMHIQGFLAALTTANQDGRVILSRQGSLSQSTLKFLLLNPAVHFAQVVKECRAVVIAGGTMQPVSDFRQQLLACAGVEAERVVEFSCGHVIPPDNILPLVICSGISNQPLEFTFQKRELPQMMDEVGRILCNLCGVVPGGVVCFFPSYEYLRQVHAHWEKGGLLGRLAARKKIFQEPKSAHQVEQVLLAYSRCIQACGQERGQVTGALLLSVVGGKMSEGINFSDNLGRCVVMVGMPFPNIRSAELQEKMAYLDQTLSPRPGTPREGSGGEPVHEGRQPVHRQGHQAPEGFCQRSAPGPAICPAPCPGQAAGLDPSPCGGQSYLWPRHCCCAEVSPGEVGLFLMGNHTTAWRRALPLSCPLETVFVVGVVCGDPVTKVKPRRRVWSPECCQDPGTGVSSRRRKWGNPE
B1: the binding result in experiment [1], in experiment [2] and in experiment [3] was “binds” throughout.

B2: full-length human Tipin (1-301) (protein, UniProt Q9BVW5 1-301)
chain: MLEPQENGVIDLPDYEHVEDETFPPFPPPASPERQDGEGTEPDEESGNGAPVRVPPKRTVKRNIPKLDAQRLISERGLPALRHVFDKAKFKGKGHEAEDLKMLIRHMEHWAHRLFPKLQFEDFIDRVEYLGSKKEVQTCLKRIRLDLPILHEDFVSNNDEVAENNEHDVTSTELDPFLTNLSESEMFASELSRSLTEEQQQRIERNKQLALERRQAKLLSNSQTLGNDMLMNTPRAHTVEEVNTDEDQKEESNGLNEDILDNPCNDAIANTLNEEETLLDQSFKNVQQQLDATSRNITEAR
Turning to B2, in experiment [4], the binding entry is recorded as “binds”.

For the origin of these results see publication doi:10.1101/826578.
